Experimental data taken from the supplement of paper PMC7024190.
Structures can show the parent of a compound that is named as a salt. The list shows a part of the results. Single values are uncertain here, since repeats match poorly.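 The cells were human embryonic kidney cells carrying a Renilla luciferase gene, driven by the HSV-TK promoter, on a plasmid put in briefly by transfection. This is the first-round screen of about ten thousand compounds, looking for ones that raise reporter output.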

test system: HEK 293FT; test: log relative Renilla luciferase luminescence (reporter expression vs reference, reference not stated) (log (base not stated)); higher = higher recombinant reporter expression; conditions: 10 µM; time after transfection 48 h

| Compound | log |
| --- | --- |
| C#CC(C)(O)CC (stereo unspecified) [meparfylon] | 0.0437 |
| C[N+]1(C)CCCC(OC(=O)C(O)(c2ccccc2)c2ccccc2)C1 (stereo unspecified) [mepenzolate bromide] | 0.0599 |
| COc1cc(OC)c(OC)cc1C=O [asarylaldehyde] | 0.0813 |
| CCOP(=S)(OCC)Oc1ccc2c(C)c(Cl)c(=O)oc2c1 [coumophos] | -0.168 |
| COC(=O)NC(=S)Nc1ccccc1NC(=S)NC(=O)OC [dimethyl 4,4-o-phenylene-bis (3-thiophanate)] | 0.0221 |
| CCOc1cc(C=O)ccc1O [ethyl vanillin] | -0.0784 |
| COc1ccccc1N1CCNCC1 [1-(2-methoxyphenyl)pierazine hydrochloride] | 0.00248 |
| C=C1C[C@@H]2[C@H](CC[C@]3(C)C(=O)CC[C@@H]23)[C@@]2(C)C=CC(=O)C=C12 [exemestane] | 0.0977 |
| CC1CC(Cl)CCC1C(=O)OC(C)(C)C (stereo unspecified) [trimedlure] | -0.305 |
| CCOP(=S)(OCC)Oc1nc(Cl)c(Cl)cc1Cl [chlorpyrifos] | -0.0341 |
| CCCCCCCCCCCCCCCC[n+]1ccccc1 [cetylpyridinium chloride] | -1.05 |
| C=CCC1(C(C)CCC)C(=O)NC(=S)NC1=O (stereo unspecified) [thiamylal sodium] | 0.131 |
| CC(=O)O[C@@H]1CC[C@@]2(C)[C@@H](CC[C@@H]3[C@@H]2CC[C@]2(C)C(=O)CC[C@@H]32)C1 [androsterone acetate] | 0.0856 |
| c1ccc(/N=N/c2ccccc2)cc1 [azobenzene] | 0.0474 |
| CC(=O)NC1CCSC1=O (stereo unspecified) [citiolone] | 0.0463 |
| O=C(O)Cc1cnc[nH]1 [imidazol-4-ylacetic acid sodium salt] | 0.0043 |
| COc1cc([C@@H]2c3cc4c(cc3[C@H](OC(C)=O)[C@H]3COC(=O)[C@@H]23)OCO4)cc(OC)c1OC [picropodophyllin acetate] | 0.0109 |
| CNC(=O)Oc1ccccc1OC(C)C [propoxur] | -0.0385 |
| c1ccc2c(c1)sc1ccccc12 [dibenzothiophene] | -0.124 |
| O=P1(N(CCCl)CCCl)NCCCO1 (stereo unspecified) [cyclophosphamide] | -0.147 |
| CN1C(=O)CCS(=O)(=O)C1c1ccc(Cl)cc1 (stereo unspecified) [chlormezanone] | 0.037 |
| CC(C)C[C@H]1C(=O)N2CCC[C@H]2[C@]2(O)O[C@](NC(=O)[C@@H]3C=C4c5cccc6[nH]c(Br)c(c56)C[C@H]4N(C)C3)(C(C)C)C(=O)N12 [bromocriptine mesylate] | -0.119 |
| CN1[C@@H]2CC[C@H]1C[C@@H](OC(=O)C(CO)c1ccccc1)C2 (stereo partly specified) [atropine sulfate] | -0.111 |
| CNCC(O)c1ccc(O)cc1 (stereo unspecified) [oxedrine] | -0.0121 |
| CN[C@@H]1[C@@H](O)[C@@H](O[C@@H]2[C@@H](O)[C@H](O[C@H]3O[C@H]([C@@H](C)O)[C@@H](O)[C@H](O)[C@H]3N)[C@@H](N)C[C@H]2N)OC[C@]1(C)O [geneticin] | 0.0252 |
| CNC(C)(C)Cc1ccccc1 [mephentermine sulfate] | 0.00714 |

| Compound | log |
| --- | --- |
| CCOP(=S)(OCC)Oc1cc(C)nc(C(C)C)n1 [dimpylate] | -0.177 |
| C[C@]12CCC(=O)C(O)=C1CC[C@@H]1[C@@H]2CC[C@]2(C)C(=O)CC[C@@H]12 [formestane] | 0.0515 |
| CNC(=O)Oc1ccc2c(c1)[C@]1(C)CCN(C)[C@@H]1N2C [physostigmine salicylate] | -0.0356 |
| CN1[C@H]2C[C@H](OC(=O)[C@H](CO)c3ccccc3)C[C@@H]1[C@@H](O)C2 [anisodamine hydrobromide] | 0.0866 |
| CN(C)C(=O)Oc1cccc([N+](C)(C)C)c1 [neostigmine bromide] | -0.0356 |
| COc1ccc(C(CN(C)C)C2(O)CCCCC2)cc1 (stereo unspecified) [venlafaxine hydrochloride] | 0.178 |
| COc1cc2c(cc1OC)-c1c(oc3c4c(ccc3c1=O)OC(C(C)C)C4)CO2 (stereo unspecified) [dehydrodihydrorotenone] | 0.0933 |
| O=c1c(O)c(-c2ccc(O)c(O)c2)oc2c(O)c(O)cc(O)c12 [gossypetin] | 0.0873 |
| CN1CCc2cc3c(cc2C1O)OCO3 (stereo unspecified) [hydrastinine hydrochloride] | -0.154 |
| CC1(C)C2CC(=O)[C@]3(C)C(CC[C@@]4(C)[C@H](c5ccoc5)OC(=O)[C@H]5O[C@]543)[C@@]2(C)C(=O)C[C@H]1O (stereo partly specified) [1,7-dideacetoxy-1,7-dioxo-3-deacetylkhivorin] | -0.606 |
| COc1ccc(C(=O)O)cc1OC [veratric acid] | 0.101 |
| NP(N)(=O)NC(=O)c1ccc(F)cc1 [flurofamide] | -0.0411 |
| NCC(=O)c1ccccc1 [phenacylamine hydrochloride] | 0.0637 |
| CC[C@H]1CN2CC[C@H]1C[C@H]2[C@H](O)c1ccnc2ccc(OC)cc12 [hydroquinine hydrobromide hydrate] | -0.02 |
| COc1ccc(/C=C/c2cc(O)cc(O)c2)cc1 [resveratrol 4'-methyl ether] | -0.108 |
| C/C=C(\C)C(=O)O[C@H]1C[C@@H](OC(C)=O)[C@@]2(C(=O)OC)CO[C@H]3[C@@H](O)[C@@](C)([C@]45O[C@@]4(C)[C@H]4C[C@@H]5O[C@@H]5OC=C[C@@]54O)[C@H]4[C@]1(CO[C@]4(O)C(=O)OC)[C@@H]32 [azadirachtin] | -0.0162 |
| Cc1cc2c(C(C)C)c(O)c(O)c(C=O)c2c(O)c1-c1c(C)cc2c(C(C)C)c(O)c(O)c(C=O)c2c1O [gossypol] | -0.555 |
| CC(=O)Nc1cc([As](=O)(O)O)ccc1O [acetarsol] | -0.126 |
| CC(=O)[O][Hg][c]1ccccc1 [phenylmercuric acetate] | -1.38 |
| O=c1[nH]c2ccccc2n1C1CCN(CCCC(c2ccc(F)cc2)c2ccc(F)cc2)CC1 [pimozide] | -0.149 |
| COc1cccc2c1cc([N+](=O)[O-])c1c(C(=O)O)cc3c(c12)OCO3 [aristolochic acid] | 0.0285 |
| C#CCN(C)[C@H](C)Cc1ccccc1 [selegiline hydrochloride] | 0.132 |
| CN(C)C(=O)Oc1ccc[n+](C)c1 [pyridostigmine bromide] | 0.139 |
| C[C@@H]1O[C@@H](O[C@@H]2C=C3CC[C@@H]4[C@H](CC[C@]5(C)[C@@H](c6ccc(=O)oc6)CC[C@]45O)[C@@]3(C)CC2)[C@H](O)[C@H](O)[C@H]1O [proscillaridin] | -1.32 |
| NCCc1ccccc1 [phenethylamine hydrochloride] | -0.112 |
| NCCCNCCSP(=O)(O)O [amifostine] | -0.0467 |

| Compound | log |
| --- | --- |
| c1ccc2c(c1)[nH]c1cnccc12 [norharman] | 0.0492 |
| O=[N+]([O-])OCC(CO[N+](=O)[O-])O[N+](=O)[O-] [nitroglycerin] | 0.234 |
| COc1cc2occc2c2oc(=O)ccc12 [isobergaptene] | 0.061 |
| CCCCCCCCC(=O)NCc1ccc(O)c(OC)c1 [nonivamide] | 0.0161 |
| Nc1ccc([As](=O)(O)O)cc1 [arsanilic acid] | 0.539 |
| CC(C)c1ccc2c(c1O)CC[C@H]1C3=C(CC[C@]21C)C(=O)OC3 [triptophenolide] | -0.124 |
| CN1CCN(C(=O)O[C@H]2c3nccnc3C(=O)N2c2ccc(Cl)cn2)CC1 [eszopiclone] | -0.0282 |
| O=C1CC[C@@]2(O)[C@H]3Cc4ccc(O)c5c4[C@@]2(CCN3CC2CC2)[C@H]1O5 [naltrexone hydrochloride] | -0.009 |
| COc1ccc2c(c1O)-c1c(OC)c(OC)cc3c1[C@H](C2)N(C)CC3 [s-isocorydine (+)] | 0.0893 |
| NC(=O)c1cc([N+](=O)[O-])cc([N+](=O)[O-])c1 [nitromide] | -0.0539 |
| CN[C@@H]1[C@@H](O)[C@@H](O[C@@H]2[C@@H](O)[C@H](O[C@H]3O[C@H](CN)CC[C@H]3N)[C@@H](N)C[C@H]2N)OC[C@]1(C)O.CN[C@@H]1[C@@H](O)[C@@H](O[C@@H]2[C@@H](O)[C@H](O[C@H]3O[C@H]([C@@H](C)N)CC[C@H]3N)[C@@H](N)C[C@H]2N)OC[C@]1(C)O.CN[C@@H]1[C@@H](O)[C@@H](O[C@@H]2[C@@H](O)[C@H](O[C@H]3O[C@H]([C@@H](C)NC)CC[C@H]3N)[C@@H](N)C[C@H]2N)OC[C@]1(C)O [gentamicin sulfate] | 0.121 |
| C=C/C=C\CC1=C(C)[C@@H](OC(=O)[C@@H]2[C@@H](/C=C(\C)C(=O)OC)C2(C)C)CC1=O.C=C/C=C\CC1=C(C)[C@@H](OC(=O)[C@@H]2[C@@H](C=C(C)C)C2(C)C)CC1=O [pyrethrins] | -0.251 |
| O=C(O)CCCO [sodium oxybate] | 0.0623 |
| NCc1cccnc1 [picolamine] | 0.127 |
| CC(NC(C)(C)C)C(=O)c1cccc(Cl)c1 (stereo unspecified) [bupropion] | -0.00825 |
| CCOC(=O)CC(SP(=S)(OC)OC)C(=O)OCC (stereo unspecified) [malathion] | 0.109 |
| NCC(CC(=O)O)c1ccc(Cl)cc1 (stereo unspecified) [baclofen] | 0.0328 |
| CC(=O)[C@H]1CC[C@H]2[C@@H]3CC[C@H]4C[C@H](O)CC[C@]4(C)[C@H]3CC[C@]12C [allopregnanolone] | 0.101 |
| C=CCSSCC=C [garlicin] | 0.0271 |
| CC(N)Cc1ccc(O)cc1 (stereo unspecified) [hydroxyamphetamine hydrobromide] | -0.0119 |
| CCOC(=O)C1C(C=C(C)C)C1(C)C (stereo unspecified) [chrysanthemic acid, ethyl ester] | 0.117 |
| COC1=C[C@@H]2[C@@H]3Cc4ccc(OC)c(O)c4[C@]2(CCN3C)CC1=O [sinomenine] | -0.139 |
| O=[N+]([O-])C(Br)(CO)CO [bronopol] | -0.776 |
| NC1=NC(=O)C(c2ccccc2)O1 (stereo unspecified) [pemoline] | -0.012 |

2 entries picked at random from those above:

| Compound | log |
| --- | --- |
| CC(NC(C)(C)C)C(=O)c1cccc(Cl)c1 (stereo unspecified) [bupropion] | -0.00825 |
| C=C1C[C@@H]2[C@H](CC[C@]3(C)C(=O)CC[C@@H]23)[C@@]2(C)C=CC(=O)C=C12 [exemestane] | 0.0977 |
